Results are given in words; binding and its absence hold for the method and conditions named. Some results given as binding are weak or reduced against the parent protein; the word gives no strength.
Biological target: T1, bovine collagen I (bovine, UniProt P02453 162-1217; P02465 80-1117, limits assumed)
T1 construct: also called immobilized collagen I; soluble collagen I
Experiment: ELISA on immobilized bovine collagen I
Description: Fc-protein was used as negative control.
An Immulon 2 HB 96-well plate (NUNC, Rochester, N.Y.) was coated with 0.1 ml 1 μg/ml bovine collagen I in 15 mM Na₂CO3, 35 mM NaHCO3, pH 9.6 o/n at 4° C. Wells were washed with PBS-T, blocked with 0.1 ml 1× RotiBlock (Roth, Karlsruhe, Germany) in PBS-T for one hour and washed again before addition of 0.1 ml of threefold dilutions of fusion protein. After one hour incubation at RT with shaking, wells were washed with PBS-T. Wells were incubated with 0.1 ml anti-human IgG-HRP (Dianova, Hamburg, Germany) 1:10000 in PBS-T for one hour at RT with shaking. The plate was washed with PBS-T and incubated with 0.1 ml 1-Step Ultra TMB-ELISA (PIERCE, Rockford, Ill.). After blue staining had developed sufficiently, reactions were stopped by addition of 0.1 ml 1 M H₂SO₄. Absorbance was measured at 450 nm and 595 nm as a reference wavelength using an infinite F200 plate reader (TECAN, Männedorf, Switzerland). EC₅₀ values were calculated with Sigma Plot 11 using Four Parameter Logistic.

The chains behind the UniProt entries cited, without tags or fusion partners. Where a name states a change or a piece, a line headed by the entry shows the natural chain unless it says otherwise. Residues count along the entry.
UniProt P02453: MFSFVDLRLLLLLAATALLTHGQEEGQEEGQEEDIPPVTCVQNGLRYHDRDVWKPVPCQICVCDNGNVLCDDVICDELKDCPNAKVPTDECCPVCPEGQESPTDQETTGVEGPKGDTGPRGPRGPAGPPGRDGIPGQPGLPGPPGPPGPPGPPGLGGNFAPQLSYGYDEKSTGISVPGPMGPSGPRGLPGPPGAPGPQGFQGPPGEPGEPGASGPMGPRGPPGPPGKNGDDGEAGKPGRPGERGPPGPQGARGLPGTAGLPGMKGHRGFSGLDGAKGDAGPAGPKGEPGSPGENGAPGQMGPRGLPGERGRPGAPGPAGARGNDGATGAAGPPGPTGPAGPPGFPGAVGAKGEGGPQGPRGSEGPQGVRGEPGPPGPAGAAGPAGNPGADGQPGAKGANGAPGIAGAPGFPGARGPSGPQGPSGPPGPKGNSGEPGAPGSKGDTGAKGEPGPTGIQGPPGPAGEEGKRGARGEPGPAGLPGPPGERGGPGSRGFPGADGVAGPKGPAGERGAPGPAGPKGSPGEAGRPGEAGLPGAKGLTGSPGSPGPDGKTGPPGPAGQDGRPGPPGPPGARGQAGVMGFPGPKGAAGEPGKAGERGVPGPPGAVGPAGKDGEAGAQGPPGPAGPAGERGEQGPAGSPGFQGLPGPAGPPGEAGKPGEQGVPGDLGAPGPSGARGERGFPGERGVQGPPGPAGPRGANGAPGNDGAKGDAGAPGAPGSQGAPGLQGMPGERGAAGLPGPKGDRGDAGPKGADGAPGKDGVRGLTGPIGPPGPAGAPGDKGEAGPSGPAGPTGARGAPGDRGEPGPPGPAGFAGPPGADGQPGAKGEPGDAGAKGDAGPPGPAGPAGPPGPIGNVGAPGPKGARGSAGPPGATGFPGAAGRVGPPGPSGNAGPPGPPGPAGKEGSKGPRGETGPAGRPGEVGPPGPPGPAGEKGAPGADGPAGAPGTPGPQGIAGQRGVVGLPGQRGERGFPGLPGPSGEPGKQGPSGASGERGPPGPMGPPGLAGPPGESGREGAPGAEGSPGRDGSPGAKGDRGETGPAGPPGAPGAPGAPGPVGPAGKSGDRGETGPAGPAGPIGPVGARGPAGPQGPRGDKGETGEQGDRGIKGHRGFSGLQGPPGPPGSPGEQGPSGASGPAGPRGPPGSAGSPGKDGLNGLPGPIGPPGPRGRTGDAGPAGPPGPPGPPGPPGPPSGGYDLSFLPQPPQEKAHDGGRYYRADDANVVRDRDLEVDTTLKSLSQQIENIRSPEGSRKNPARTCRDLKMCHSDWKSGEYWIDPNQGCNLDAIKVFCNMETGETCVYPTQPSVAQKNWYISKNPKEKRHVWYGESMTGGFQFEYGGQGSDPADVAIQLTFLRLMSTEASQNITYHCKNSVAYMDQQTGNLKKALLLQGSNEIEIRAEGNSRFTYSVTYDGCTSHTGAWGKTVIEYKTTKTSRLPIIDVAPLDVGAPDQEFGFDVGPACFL
UniProt Q9HCN6, residues 21-267: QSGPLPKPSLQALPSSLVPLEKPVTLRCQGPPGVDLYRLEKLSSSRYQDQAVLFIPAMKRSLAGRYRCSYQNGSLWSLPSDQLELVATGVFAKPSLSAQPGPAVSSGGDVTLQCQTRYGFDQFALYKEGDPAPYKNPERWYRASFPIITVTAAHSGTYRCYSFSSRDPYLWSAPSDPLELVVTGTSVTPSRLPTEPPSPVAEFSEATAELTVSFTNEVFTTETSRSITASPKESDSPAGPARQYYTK

binding: binds
Substance: GPVI-FcIgG1 (from UniProt Q9HCN6 21-267) (Fc fusion)

Source: US20130130315A1 (ADVANCECOR, published 2013)
